Results are given in words; binding and its absence hold for the method and conditions named. In cells and extracts the contact can be indirect. Here binding means that the protein was enriched with, or labelled near, the bait; the list need not be complete. Sequences can lack the tags named with a protein.
Target: T1, GST-PRAP1△N20 (GST-tagged recombinant PRAP1 lacking the N-terminal 20-aa signal peptide) (mouse) (UniProt Q80XD8)
T1 sequence: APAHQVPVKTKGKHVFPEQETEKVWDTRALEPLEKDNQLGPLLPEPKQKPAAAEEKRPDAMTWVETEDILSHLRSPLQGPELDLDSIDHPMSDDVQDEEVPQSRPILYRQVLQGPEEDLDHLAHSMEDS
Test: affinity purification with mass spectrometry; about 10 ug GST-PRAP1△N20 (or GST) on glutathione beads added to 2 mg IEC lysate of PRAP1-/- mice; 1 h at 4 °C; NP-40 lysis buffer (10 mM HEPES pH 7.5, 142.5 mM KCl, 5 mM MgCl2, 1 mM EGTA, 0.2% NP-40); bands seen with GST-PRAP1△N20 but not GST identified by mass spectrometry; only the target purified

- binding: binds
B1: Microsomal triglyceride transfer protein (MTTP), endogenous in mouse intestinal epithelial cells (protein, UniProt O08601 22-894)
chain: HTTGLSLNNERLYKLTYSTEVFLDGGKGKPQDSVGYKISSDVDVVLLWRNPDGDDDQVIQVTITAVNVENAGQQRGEKSIFQGKSTPKIIGKDNLEALQRPMLLHLVRGKVKEFYSYENEPVGIENLKRGLASLFQMQLSSGTTNEVDISGDCKVTYQAQQDKVVKIKALDTCKIERSGFTTANQVLGVSSKATSVTTYKIEDSFVTAVLAEETRAFALNFQQTIAGKIVSKQKLELKTTEAGPRMIPGKQVAGVIKAVDSKYKAIPIVGQVLERVCKGCPSLAEHWKSIRKNLEPENLSKAEAVQSFLAFIQHLRTSRREEILQILKAEKKEVLPQLVDAVTSAQTPDSLEAILDFLDFKSDSSIILQERFLYACGFATHPDEELLRALLSKFKGSFASNDIRESVMIIIGALVRKLCQNEGCKLKAVVEAKKLILGGLEKPEKKEDTTMYLLALKNALLPEGIPLLLKYAEAGEGPVSHLATTVLQRYDVSFITDEVKKTLNRIYHQNRKVHEKTVRTTAAAVILKNPSYMDVKNILLSIGELPKEMNKYMLTVVQDILHFEMPASKMIRRVLKEMAVHNYDRFSKSGSSSAYTGYVERSPRAASTYSLDILYSGSGILRRSNLNIFQYIGKAELHGSQVVIEAQGLEGLIAATPDEGEENLDSYAGMSAILFDVQLRPVTFFNGYSDLMSKMLSASGDPVSVVKGLILLIDHSQDIQLQSGLKANMEIQGGLAIDISGSMEFSLWYRESKTRVKNRVAVVITSDVTVDASFVKAGVESRAETEAGLEFISTVQFSQYPFLVCMQMDKAEAPLRQFETKYERLSTGRGYVSRRRKESLVAGCELPLHQENSEMCNVVFPPQPESDNSGGWF

— article PMC7949078
